Source: paper PMC3758340
These are yes or no findings as the source states them, for the method shown. Some entries that bind do so weakly or less than the wild type.

By UniProt entry, the sequences of proteins in these tests, tags left out. Where a name states a change or a piece, a line headed by the entry shows the natural chain unless it says otherwise. Residues count along the entry.
UniProt P02454: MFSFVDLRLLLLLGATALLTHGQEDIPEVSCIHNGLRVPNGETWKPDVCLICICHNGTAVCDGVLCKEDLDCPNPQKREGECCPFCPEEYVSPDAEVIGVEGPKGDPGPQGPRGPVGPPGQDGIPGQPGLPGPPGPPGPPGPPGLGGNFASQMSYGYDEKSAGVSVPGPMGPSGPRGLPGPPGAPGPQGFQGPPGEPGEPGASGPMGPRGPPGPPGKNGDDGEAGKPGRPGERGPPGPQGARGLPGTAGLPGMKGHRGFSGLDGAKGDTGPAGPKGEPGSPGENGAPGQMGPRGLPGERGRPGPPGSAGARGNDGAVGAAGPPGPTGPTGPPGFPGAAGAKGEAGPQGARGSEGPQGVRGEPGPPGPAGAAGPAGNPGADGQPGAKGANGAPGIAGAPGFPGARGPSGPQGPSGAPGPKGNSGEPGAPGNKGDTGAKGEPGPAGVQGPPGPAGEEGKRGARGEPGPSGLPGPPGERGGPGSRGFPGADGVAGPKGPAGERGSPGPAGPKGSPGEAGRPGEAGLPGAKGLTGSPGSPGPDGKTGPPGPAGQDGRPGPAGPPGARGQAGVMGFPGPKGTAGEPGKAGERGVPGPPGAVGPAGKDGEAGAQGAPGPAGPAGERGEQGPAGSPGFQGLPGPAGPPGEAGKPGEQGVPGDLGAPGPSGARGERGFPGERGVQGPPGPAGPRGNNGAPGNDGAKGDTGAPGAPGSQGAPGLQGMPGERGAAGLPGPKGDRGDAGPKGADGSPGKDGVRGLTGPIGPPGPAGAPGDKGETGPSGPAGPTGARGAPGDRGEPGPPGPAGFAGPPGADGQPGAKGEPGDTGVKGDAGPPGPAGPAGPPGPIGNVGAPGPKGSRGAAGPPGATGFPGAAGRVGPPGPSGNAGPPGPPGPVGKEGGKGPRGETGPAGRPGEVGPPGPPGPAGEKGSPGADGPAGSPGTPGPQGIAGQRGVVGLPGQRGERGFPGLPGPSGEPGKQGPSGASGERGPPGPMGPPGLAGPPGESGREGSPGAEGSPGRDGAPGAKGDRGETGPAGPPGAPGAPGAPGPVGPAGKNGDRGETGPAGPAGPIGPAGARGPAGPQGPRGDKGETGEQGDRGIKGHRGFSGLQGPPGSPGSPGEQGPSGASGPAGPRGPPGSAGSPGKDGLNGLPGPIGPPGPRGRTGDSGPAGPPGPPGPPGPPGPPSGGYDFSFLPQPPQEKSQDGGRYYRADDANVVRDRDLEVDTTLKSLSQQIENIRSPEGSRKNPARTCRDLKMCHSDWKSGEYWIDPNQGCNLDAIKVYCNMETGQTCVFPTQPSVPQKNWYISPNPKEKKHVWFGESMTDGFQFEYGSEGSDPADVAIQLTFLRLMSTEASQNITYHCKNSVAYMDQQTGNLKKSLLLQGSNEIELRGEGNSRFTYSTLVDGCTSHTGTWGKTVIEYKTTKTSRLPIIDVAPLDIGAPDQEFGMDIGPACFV
UniProt P02466: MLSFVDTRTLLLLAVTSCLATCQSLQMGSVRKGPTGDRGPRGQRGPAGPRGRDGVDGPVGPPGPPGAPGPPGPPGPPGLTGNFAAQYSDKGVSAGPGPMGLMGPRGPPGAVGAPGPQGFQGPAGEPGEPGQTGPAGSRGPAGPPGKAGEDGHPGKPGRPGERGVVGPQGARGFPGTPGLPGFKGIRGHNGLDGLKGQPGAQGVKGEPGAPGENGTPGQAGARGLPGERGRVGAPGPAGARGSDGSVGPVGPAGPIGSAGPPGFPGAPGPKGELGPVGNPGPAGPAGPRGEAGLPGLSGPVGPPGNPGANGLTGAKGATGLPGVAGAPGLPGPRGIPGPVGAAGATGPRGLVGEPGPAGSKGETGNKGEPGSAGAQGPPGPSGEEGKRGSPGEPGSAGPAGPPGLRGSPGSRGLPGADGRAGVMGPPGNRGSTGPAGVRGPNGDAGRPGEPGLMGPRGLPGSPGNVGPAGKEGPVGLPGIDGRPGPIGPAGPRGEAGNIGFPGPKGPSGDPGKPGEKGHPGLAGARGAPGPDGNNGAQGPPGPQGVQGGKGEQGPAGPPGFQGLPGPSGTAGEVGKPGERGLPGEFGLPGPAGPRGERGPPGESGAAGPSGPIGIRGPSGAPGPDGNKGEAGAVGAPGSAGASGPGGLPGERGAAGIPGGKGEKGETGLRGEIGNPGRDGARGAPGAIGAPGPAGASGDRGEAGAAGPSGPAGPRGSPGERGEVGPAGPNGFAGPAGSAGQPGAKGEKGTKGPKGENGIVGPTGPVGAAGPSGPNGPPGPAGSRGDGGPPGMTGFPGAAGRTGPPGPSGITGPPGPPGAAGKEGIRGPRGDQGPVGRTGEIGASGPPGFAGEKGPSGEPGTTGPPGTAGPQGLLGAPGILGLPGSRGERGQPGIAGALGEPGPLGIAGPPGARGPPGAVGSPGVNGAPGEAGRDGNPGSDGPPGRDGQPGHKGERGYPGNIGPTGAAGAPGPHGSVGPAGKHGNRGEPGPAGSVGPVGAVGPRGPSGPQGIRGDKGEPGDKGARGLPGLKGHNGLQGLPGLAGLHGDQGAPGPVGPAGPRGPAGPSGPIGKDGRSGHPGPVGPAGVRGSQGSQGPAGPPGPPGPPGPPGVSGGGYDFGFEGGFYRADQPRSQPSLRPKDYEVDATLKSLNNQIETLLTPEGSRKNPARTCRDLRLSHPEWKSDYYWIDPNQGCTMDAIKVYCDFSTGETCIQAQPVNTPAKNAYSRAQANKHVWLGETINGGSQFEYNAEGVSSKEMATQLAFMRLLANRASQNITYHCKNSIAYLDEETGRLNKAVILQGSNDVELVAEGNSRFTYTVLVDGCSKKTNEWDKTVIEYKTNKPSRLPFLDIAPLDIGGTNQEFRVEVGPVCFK
UniProt P21793, residues 31-360: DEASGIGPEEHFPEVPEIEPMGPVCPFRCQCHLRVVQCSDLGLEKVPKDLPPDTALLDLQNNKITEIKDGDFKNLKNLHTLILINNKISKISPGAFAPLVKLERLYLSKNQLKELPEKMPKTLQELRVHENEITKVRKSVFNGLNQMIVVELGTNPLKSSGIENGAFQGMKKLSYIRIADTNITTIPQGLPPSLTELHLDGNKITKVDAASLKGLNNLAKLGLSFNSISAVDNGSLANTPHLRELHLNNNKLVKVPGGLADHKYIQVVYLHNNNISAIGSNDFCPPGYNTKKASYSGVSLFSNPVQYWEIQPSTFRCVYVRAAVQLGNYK

Target: rat tail type I collagen (rat) (UniProt P02454+P02466)
Experiment: transmission electron microscopy with cupromeronic blue staining; collagen lattices made from acid-soluble rat tail type I collagen (1 mg/ml) with addition of decorin; GAG chains of decorin stained by cupromeronic blue; ultrathin sections; both purified

- binding: binds
Substance: purified bovine decorin (from UniProt P21793 31-360)
